Some of the results follow.
What was measured:
Assay in all cases: log2 fold change, soluble protein after heating vs DMSO (PISA); higher = thermal stabilisation; K562 cells, 10 uM, 30 min; active = over 0.2 and 3.5 SD of the protein, either way, in both replicates (recomputed)
[1] = compound: CC1=C(C=C(C=C1)NC(=O)C2=CC(=CC=C2)C(C)(C)C#N)NC3=CC4=C(C=C3)N=CN(C4=O)C
In short: (§1)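 K562 cells at 2×10^6 cells/mL were treated for 30 min with 10 μM compound, and aliquots were heated for 3 min over 48°C-58°C before pooling. Extraction used PBS with 0.5% NP-40 at 4°C, and soluble protein was the supernatant after 21,000xg for 90 min, measured by TMTpro 16plex LC-MS/MS with channel sums equalised. Thermal stability values, relative to control samples and from duplicates, are log2 fold changes.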

The chains behind the UniProt entries cited, without tags or fusion partners. Where a name states a change or a piece, a line headed by the entry shows the natural chain unless it says otherwise.
UniProt P42695: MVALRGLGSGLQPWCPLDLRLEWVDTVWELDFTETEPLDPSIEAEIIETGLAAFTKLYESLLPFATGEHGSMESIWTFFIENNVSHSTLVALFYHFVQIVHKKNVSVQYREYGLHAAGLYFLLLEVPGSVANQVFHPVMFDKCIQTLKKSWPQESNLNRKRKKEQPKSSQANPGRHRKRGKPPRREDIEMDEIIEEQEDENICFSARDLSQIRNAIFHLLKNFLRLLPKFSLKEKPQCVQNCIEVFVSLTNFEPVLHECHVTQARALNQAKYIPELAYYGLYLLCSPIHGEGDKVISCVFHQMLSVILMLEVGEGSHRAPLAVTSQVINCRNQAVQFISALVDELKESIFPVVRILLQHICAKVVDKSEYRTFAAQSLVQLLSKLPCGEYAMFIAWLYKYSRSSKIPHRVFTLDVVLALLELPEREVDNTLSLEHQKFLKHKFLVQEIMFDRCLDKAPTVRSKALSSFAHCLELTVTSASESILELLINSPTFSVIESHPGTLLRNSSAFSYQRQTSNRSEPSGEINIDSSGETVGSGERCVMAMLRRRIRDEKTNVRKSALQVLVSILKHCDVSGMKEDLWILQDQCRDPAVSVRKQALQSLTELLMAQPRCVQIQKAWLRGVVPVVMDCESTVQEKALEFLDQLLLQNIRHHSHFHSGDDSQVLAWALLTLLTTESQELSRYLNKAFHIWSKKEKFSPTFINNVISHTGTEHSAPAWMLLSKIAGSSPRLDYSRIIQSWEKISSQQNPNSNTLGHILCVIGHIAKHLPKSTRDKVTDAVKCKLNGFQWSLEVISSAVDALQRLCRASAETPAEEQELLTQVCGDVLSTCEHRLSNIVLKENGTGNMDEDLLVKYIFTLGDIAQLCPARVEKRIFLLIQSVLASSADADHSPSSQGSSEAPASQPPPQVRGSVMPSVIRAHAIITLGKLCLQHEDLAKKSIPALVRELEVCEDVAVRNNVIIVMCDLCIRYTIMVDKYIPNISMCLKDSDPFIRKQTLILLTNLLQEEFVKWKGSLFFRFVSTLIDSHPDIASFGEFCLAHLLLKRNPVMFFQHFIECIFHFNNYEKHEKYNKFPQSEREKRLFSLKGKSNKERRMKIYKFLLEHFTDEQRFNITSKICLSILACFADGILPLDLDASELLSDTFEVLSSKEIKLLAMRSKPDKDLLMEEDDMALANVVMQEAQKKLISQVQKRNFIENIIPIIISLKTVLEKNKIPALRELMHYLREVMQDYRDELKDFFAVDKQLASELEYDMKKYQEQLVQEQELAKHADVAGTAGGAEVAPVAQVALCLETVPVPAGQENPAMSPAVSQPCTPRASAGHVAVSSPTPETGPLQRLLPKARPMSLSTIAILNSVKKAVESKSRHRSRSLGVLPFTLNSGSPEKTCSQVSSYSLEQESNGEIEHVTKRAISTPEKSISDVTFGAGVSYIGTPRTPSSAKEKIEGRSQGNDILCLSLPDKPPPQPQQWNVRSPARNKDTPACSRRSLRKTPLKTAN
UniProt Q9UBB6: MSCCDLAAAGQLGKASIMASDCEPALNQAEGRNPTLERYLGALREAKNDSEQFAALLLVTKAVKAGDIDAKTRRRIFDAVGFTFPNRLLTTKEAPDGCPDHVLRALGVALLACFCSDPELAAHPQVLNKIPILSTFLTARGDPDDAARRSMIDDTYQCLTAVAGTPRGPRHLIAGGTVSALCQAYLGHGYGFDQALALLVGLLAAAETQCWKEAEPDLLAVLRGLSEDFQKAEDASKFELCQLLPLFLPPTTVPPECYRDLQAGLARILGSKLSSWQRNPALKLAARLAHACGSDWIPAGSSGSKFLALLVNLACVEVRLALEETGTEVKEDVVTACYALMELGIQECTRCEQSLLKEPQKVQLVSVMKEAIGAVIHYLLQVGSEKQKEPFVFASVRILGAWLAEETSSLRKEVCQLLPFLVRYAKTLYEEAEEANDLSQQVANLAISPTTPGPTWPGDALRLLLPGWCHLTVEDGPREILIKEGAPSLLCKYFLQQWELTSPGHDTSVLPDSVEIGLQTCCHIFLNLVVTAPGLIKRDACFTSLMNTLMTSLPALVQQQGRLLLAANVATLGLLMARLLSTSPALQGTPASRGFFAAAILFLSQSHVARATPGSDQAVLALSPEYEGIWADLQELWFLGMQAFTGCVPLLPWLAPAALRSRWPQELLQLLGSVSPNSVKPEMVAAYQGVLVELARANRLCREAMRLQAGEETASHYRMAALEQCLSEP
UniProt O76041: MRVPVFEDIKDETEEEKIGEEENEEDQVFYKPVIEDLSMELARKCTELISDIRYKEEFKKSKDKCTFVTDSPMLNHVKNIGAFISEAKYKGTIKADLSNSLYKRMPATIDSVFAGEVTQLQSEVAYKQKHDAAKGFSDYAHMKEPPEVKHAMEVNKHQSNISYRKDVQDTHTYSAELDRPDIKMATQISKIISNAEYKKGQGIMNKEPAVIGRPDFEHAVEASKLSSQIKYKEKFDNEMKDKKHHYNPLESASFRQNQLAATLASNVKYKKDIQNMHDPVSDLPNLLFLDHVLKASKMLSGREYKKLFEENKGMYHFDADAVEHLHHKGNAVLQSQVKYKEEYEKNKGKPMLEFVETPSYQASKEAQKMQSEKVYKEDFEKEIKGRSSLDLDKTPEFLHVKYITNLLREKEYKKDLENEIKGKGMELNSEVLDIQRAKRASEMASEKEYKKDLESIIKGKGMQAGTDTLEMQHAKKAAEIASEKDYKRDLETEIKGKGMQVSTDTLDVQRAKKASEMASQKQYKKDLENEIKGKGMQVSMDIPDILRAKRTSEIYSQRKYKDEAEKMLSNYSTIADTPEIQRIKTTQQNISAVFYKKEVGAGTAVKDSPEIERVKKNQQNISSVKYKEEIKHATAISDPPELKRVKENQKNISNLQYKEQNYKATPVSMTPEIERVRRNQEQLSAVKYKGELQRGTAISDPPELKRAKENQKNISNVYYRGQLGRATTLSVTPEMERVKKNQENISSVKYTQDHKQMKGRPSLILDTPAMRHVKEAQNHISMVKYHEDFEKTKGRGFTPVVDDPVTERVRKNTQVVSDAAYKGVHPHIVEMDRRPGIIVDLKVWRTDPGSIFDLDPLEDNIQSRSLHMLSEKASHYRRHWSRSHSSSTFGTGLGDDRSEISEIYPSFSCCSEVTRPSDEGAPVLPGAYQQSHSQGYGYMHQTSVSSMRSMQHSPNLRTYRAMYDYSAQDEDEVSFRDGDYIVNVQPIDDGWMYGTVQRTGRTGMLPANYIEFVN
UniProt O43920, whole entry, looked up: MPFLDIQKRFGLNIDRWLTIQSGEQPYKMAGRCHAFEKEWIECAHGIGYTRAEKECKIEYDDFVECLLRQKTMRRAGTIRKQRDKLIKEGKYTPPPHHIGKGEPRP
UniProt P52298: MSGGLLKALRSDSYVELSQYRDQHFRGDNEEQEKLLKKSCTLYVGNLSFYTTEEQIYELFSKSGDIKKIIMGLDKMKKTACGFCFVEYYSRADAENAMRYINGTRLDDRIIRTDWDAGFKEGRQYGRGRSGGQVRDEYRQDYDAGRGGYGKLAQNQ
UniProt Q9NXR1: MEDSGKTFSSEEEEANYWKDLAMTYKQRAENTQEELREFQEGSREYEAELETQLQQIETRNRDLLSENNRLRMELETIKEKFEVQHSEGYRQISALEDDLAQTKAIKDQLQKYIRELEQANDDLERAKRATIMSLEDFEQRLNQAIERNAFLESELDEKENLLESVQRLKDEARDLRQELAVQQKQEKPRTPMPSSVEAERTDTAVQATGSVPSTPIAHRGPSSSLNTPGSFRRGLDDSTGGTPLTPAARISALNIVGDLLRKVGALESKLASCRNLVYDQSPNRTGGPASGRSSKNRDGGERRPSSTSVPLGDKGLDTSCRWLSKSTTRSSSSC
UniProt Q9Y375: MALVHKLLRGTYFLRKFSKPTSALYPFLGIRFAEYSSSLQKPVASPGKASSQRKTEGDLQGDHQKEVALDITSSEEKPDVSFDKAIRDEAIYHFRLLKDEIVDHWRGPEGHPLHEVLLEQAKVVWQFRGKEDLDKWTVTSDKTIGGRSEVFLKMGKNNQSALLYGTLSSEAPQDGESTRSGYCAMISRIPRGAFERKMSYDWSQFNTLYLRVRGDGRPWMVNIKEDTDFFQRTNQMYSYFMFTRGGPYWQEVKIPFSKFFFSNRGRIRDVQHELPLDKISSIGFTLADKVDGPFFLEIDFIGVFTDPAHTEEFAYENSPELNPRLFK
UniProt O95139, whole entry, looked up: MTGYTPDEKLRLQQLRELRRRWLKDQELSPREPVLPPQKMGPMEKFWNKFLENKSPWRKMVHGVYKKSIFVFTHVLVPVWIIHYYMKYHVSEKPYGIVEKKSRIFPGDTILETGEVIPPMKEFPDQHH
UniProt P43490: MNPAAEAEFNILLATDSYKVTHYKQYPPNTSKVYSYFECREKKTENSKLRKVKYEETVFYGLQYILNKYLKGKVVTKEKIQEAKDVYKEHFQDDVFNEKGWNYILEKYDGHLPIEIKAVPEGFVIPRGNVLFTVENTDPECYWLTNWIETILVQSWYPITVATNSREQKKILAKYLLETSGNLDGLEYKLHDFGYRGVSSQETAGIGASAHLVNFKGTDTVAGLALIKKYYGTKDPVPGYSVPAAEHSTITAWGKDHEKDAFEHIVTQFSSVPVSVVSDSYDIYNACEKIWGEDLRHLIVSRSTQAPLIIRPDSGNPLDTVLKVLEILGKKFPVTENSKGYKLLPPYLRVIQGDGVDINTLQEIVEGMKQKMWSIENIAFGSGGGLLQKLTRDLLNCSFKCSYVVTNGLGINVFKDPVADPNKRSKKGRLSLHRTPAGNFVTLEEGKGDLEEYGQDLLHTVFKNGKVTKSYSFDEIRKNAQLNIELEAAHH
UniProt P17050: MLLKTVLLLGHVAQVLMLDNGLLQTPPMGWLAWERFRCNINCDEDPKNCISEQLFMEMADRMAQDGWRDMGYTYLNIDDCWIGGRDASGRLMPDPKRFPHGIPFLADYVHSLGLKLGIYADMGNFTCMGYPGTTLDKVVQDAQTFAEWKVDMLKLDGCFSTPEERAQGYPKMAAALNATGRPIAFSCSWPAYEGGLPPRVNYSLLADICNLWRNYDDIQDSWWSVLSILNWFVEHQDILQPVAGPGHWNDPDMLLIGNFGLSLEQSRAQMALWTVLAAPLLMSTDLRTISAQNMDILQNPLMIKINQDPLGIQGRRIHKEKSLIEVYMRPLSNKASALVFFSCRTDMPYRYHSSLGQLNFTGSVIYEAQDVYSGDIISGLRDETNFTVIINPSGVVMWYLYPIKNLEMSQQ
UniProt Q6XQN6: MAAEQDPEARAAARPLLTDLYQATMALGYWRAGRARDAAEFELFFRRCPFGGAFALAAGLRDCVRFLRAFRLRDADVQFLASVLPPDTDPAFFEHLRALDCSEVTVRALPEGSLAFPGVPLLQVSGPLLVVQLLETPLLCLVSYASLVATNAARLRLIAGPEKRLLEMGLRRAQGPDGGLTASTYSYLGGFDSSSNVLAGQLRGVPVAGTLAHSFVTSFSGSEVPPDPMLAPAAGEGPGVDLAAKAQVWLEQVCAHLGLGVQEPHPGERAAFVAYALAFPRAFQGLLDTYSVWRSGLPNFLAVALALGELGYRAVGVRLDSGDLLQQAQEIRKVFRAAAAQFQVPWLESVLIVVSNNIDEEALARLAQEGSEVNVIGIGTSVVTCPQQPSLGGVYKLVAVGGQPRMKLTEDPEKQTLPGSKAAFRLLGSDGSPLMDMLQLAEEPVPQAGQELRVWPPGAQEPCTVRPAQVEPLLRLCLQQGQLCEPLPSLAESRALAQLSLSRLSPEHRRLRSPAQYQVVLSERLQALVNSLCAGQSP
UniProt Q6N069: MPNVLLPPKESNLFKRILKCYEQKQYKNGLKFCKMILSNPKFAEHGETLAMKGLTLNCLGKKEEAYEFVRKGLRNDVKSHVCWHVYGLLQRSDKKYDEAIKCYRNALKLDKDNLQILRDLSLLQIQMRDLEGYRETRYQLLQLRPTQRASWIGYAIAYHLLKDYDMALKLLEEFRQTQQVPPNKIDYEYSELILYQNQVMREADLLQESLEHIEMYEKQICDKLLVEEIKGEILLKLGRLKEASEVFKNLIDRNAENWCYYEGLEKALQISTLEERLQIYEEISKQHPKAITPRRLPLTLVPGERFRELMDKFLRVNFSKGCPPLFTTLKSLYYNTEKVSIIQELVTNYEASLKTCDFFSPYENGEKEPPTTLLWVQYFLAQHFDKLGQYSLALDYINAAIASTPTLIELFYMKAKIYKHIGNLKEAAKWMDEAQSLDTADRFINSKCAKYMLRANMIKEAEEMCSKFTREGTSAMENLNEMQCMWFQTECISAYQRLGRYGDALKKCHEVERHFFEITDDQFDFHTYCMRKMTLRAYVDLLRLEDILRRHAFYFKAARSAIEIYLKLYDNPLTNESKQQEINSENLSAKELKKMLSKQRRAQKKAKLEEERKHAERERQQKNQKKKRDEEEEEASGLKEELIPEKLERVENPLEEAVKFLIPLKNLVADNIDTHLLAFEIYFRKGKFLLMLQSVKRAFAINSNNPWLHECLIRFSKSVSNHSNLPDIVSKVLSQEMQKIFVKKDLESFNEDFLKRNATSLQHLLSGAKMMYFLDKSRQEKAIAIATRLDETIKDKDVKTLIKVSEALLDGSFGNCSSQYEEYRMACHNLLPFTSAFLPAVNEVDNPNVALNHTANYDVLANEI

[2] = compound: CC1=C(C=C(C=C1)NC(=O)C2=CC(=CC=C2)N(C)C)NC(=O)C3=CC=C(C=C3)O
In short: as §1

[3] = compound: CC1=CC=C(C=C1)SC2=C3C=C(SC3=CN=C2)C(=O)N
In short: as §1

[4] = compound: CC1=NC(=CC=C1)C2=C(N=C(N2)C(C)(C)C)C3=CC4=NC=CN=C4C=C3
In short: as §1

Nexturastat A = compound: CCCCN(Cc1ccc(C(=O)NO)cc1)C(=O)Nc1ccccc1 [Nexturastat A]
In short: as §1

vemurafenib = compound: CCCS(=O)(=O)Nc1ccc(F)c(C(=O)c2c[nH]c3ncc(-c4ccc(Cl)cc4)cc23)c1F [vemurafenib]
In short: as §1

[5] = compound: CCCS(=O)(=O)Nc1ccc(F)c(C(=O)c2c[nH]c3ncc(Cl)cc23)c1F
In short: as §1

[6] = compound: CCCc1cc(C)[nH]c(=O)c1CNC(=O)c1cc(-c2ccnc(N3CCN(C)CC3)c2)cc2c1cnn2C(C)C
In short: as §1

givinostat = compound: CCN(CC)Cc1ccc2cc(COC(=O)Nc3ccc(C(=O)NO)cc3)ccc2c1 [givinostat]
In short: as §1

barasertib = compound: CCN(CCCOc1ccc2c(Nc3cc(CC(=O)Nc4cccc(F)c4)[nH]n3)ncnc2c1)CCOP(=O)(O)O [barasertib]
In short: as §1

[7] = compound: CC[C@@H]1C(=O)N(C)c2cnc(Nc3ccc(C(=O)NC4CCN(C)CC4)cc3OC)nc2N1C1CCCC1
In short: as §1

volasertib = compound: CC[C@@H]1C(=O)N(C)c2cnc(Nc3ccc(C(=O)N[C@H]4CC[C@H](N5CCN(CC6CC6)CC5)CC4)cc3OC)nc2N1C(C)C [volasertib]
In short: as §1

[8] = compound: CC[C@H](C)N1C=C(C2=C(C=C(C=C21)C3=CN=C(C=C3)N4CCNCC4)C(=O)NCC5=C(C=C(NC5=O)C)C)C
In short: as §1

epoxomicin = compound: CC[C@H](C)[C@@H](C(=O)N[C@@H]([C@@H](C)O)C(=O)N[C@@H](CC(C)C)C(=O)[C@]1(CO1)C)NC(=O)[C@H]([C@@H](C)CC)N(C)C(=O)C [epoxomicin]
In short: as §1

[9] = compound: CCn1c(C(=O)N(C2CC2)C2CC2)cc2c3c(ncn3C)c(Nc3cc(C)n(C)n3)nc21
In short: as §1

[10] = compound: CCn1cc(-c2ccnc3[nH]c(-c4cccc(CN(C)C)c4)cc23)c(-c2ccc(NC(=O)N(C)C)cc2)n1
In short: as §1

[11] = compound: CN(C)CC(=O)Nc1ccc2[nH]c(=O)c3ccccc3c2c1
In short: as §1

rosiglitazone = compound: CN(CCOC1=CC=C(C=C1)C[C@H]2C(=O)NC(=O)S2)C3=CC=CC=N3 (racemic) [rosiglitazone]
In short: as §1

[12] = compound: CN1C2=C(C3=C1C(=O)N(N=C3)CC4=CC(=CC=C4)N)SC(=C2)S(=O)C
In short: as §1

[13] = compound: CN1CCC(CNc2ccc3ncc(-c4cccc(OC(F)(F)F)c4)n3n2)CC1
In short: as §1

Measured: log2 fold change

NCAPD3 (UniProt P42695)
inactive: [1] 0.038 | [2] -0.054 | [3] 0.021 | [4] 0.009 | Nexturastat A 0.071 | vemurafenib -0.09 | [5] -0.025 | [6] -0.012 | givinostat 0.047 | barasertib -0.026 | [7] 0.004 | volasertib -0.146 | [8] 0.021 | epoxomicin 0.009 | [9] 0.018 | [10] 0.047 | [11] -0.056 | rosiglitazone 0.04 | [12] 0 | [13] -0.085

NCDN isoform 3 (UniProt Q9UBB6)
inactive: [1] 0.009 | [2] 0.004 | [3] 0.031 | [4] 0.045 | Nexturastat A 0.046 | vemurafenib 0.048 | [5] -0.093 | [6] -0.094 | givinostat -0.037 | barasertib 0.086 | [7] -0.117 | volasertib -0.083 | [8] 0.169 | epoxomicin 0.009 | [9] -0.091 | [10] 0.034 | [11] 0.043 | rosiglitazone 0.059 | [12] 0.014 | [13] -0.114

NEBL isoform 2 (UniProt O76041)
inactive: [1] -0.032 | [2] 0.008 | [3] 0.02 | [4] -0.011 | Nexturastat A -0.002 | vemurafenib -0.093 | [5] -0.007 | [6] -0.022 | givinostat -0.078 | barasertib 0.014 | [7] 0.026 | volasertib 0.025 | [8] 0.01 | epoxomicin 0.03 | [9] -0.005 | [10] 0.024 | [11] -0.046 | rosiglitazone -0.033 | [12] -0.033 | [13] -0.078

NDUFS5 (UniProt O43920)
inactive: [1] -0.047 | [2] -0.011 | [3] 0.11 | [4] -0.01 | Nexturastat A -0.044 | vemurafenib -0.05 | [5] -0.062 | [6] -0.031 | givinostat 0.055 | barasertib -0.031 | [7] 0.02 | volasertib -0.034 | [8] -0.032 | epoxomicin 0.072 | [9] -0.034 | [10] 0.059 | [11] 0 | rosiglitazone 0.015 | [12] 0.004 | [13] -0.052

NDUFV1 (UniProt P49821)
inactive: [1] -0.013 | [2] 0 | [3] -0.016 | [4] 0 | Nexturastat A 0.003 | vemurafenib -0.006 | [5] -0.001 | [6] -0.025 | givinostat -0.096 | barasertib 0.019 | [7] -0.021 | volasertib -0.013 | [8] 0.017 | epoxomicin 0.042 | [9] -0.027 | [10] -0.023 | [11] 0.017 | rosiglitazone 0.052 | [12] -0.071 | [13] -0.043

NAA35 (UniProt Q5VZE5)
inactive: [1] -0.004 | [2] 0.005 | [3] -0.028 | [4] 0.022 | Nexturastat A 0.019 | vemurafenib 0.042 | [5] 0.04 | [6] 0.046 | givinostat 0.061 | barasertib 0.019 | [7] -0.016 | volasertib -0.008 | [8] 0.012 | epoxomicin 0.006 | [9] -0.007 | [10] -0.104 | [11] 0.019 | rosiglitazone 0.034 | [12] -0.046 | [13] 0.002

NCBP2 (UniProt P52298)
inactive: [1] 0.002 | [2] -0.02 | [3] -0.012 | [4] -0.006 | Nexturastat A -0.005 | vemurafenib 0.028 | [5] 0.009 | [6] -0.031 | givinostat 0.022 | barasertib 0.022 | [7] 0.057 | volasertib 0.004 | [8] 0.039 | epoxomicin -0.001 | [9] 0.012 | [10] -0.011 | [11] 0.004 | rosiglitazone -0.008 | [12] -0.096 | [13] -0.036

NDUFA10 (UniProt O95299)
inactive: [1] -0.065 | [2] -0.025 | [3] 0.024 | [4] 0.03 | Nexturastat A -0.078 | vemurafenib -0.044 | [5] 0.025 | [6] -0.104 | givinostat 0.015 | barasertib 0.028 | [7] -0.126 | volasertib -0.223 | [8] 0.029 | epoxomicin 0.037 | [9] -0.023 | [10] -0.131 | [11] 0.03 | rosiglitazone 0.031 | [12] -0.074 | [13] -0.215

NDE1 isoform 1 (UniProt Q9NXR1)
inactive: [1] -0.026 | [2] 0.036 | [3] -0.004 | [4] -0.029 | Nexturastat A -0.016 | vemurafenib -0.021 | [5] -0.02 | [6] -0.011 | givinostat -0.038 | barasertib 0.008 | [7] 0.075 | volasertib 0.036 | [8] -0.008 | epoxomicin 0.033 | [9] -0.053 | [10] 0.017 | [11] -0.013 | rosiglitazone 0.021 | [12] -0.031 | [13] 0.033

NDUFAF1 (UniProt Q9Y375)
inactive: [1] -0.009 | [2] 0.023 | [3] 0.009 | [4] 0.026 | Nexturastat A -0.055 | vemurafenib -0.022 | [5] -0.006 | [6] -0.002 | givinostat 0.003 | barasertib -0.004 | [7] 0.02 | volasertib 0.02 | [8] -0.016 | epoxomicin 0.015 | [9] -0.021 | [10] 0.013 | [11] -0.017 | rosiglitazone -0.01 | [12] -0.008 | [13] -0.005

NDUFB6 (UniProt O95139)
inactive: [1] 0.022 | [2] -0.019 | [3] -0.014 | [4] 0.033 | Nexturastat A 0.01 | vemurafenib -0.011 | [5] -0.008 | [6] -0.11 | givinostat -0.001 | barasertib -0.065 | [7] -0.027 | volasertib -0.01 | [8] -0.058 | epoxomicin -0.032 | [9] 0.008 | [10] 0.01 | [11] -0.027 | rosiglitazone -0.004 | [12] -0.001 | [13] -0.06

NCOR2 (UniProt C9J0Q5)
inactive: [1] -0.051 | [2] 0.067 | [3] 0.005 | [4] -0.003 | Nexturastat A -0.052 | vemurafenib -0.054 | [5] -0.017 | [6] -0.052 | givinostat 0.001 | barasertib -0.009 | [7] -0.059 | volasertib -0.111 | [8] 0.091 | epoxomicin 0.069 | [9] -0.023 | [10] -0.018 | [11] 0.056 | rosiglitazone 0.005 | [12] -0.074 | [13] -0.021

NAMPT (UniProt P43490)
inactive: [1] -0.028 | [2] -0.002 | [3] 0.011 | [4] 0.01 | Nexturastat A -0.048 | vemurafenib -0.005 | [5] -0.012 | [6] -0.036 | givinostat 0.015 | barasertib -0.011 | [7] 0.029 | volasertib 0.035 | [8] -0.03 | epoxomicin 0.001 | [9] 0.019 | [10] -0.029 | [11] -0.009 | rosiglitazone 0.006 | [12] -0.066 | [13] 0.008

NAGA (UniProt P17050)
inactive: [1] -0.055 | [2] -0.058 | [3] 0.072 | [4] -0.1 | Nexturastat A -0.029 | vemurafenib -0.055 | [5] -0.047 | [6] -0.004 | givinostat -0.036 | barasertib -0.014 | [7] -0.142 | volasertib -0.117 | [8] -0.041 | epoxomicin 0.043 | [9] -0.05 | [10] -0.071 | [11] -0.037 | rosiglitazone 0.014 | [12] -0.059 | [13] -0.232

NAPRT (UniProt Q6XQN6)
inactive: [1] -0.025 | [2] -0.006 | [3] -0.011 | [4] -0.002 | Nexturastat A -0.14 | vemurafenib -0.019 | [5] -0.025 | [6] -0.044 | givinostat -0.085 | barasertib 0.002 | [7] -0.01 | volasertib 0.084 | [8] -0.028 | epoxomicin 0.014 | [9] -0.053 | [10] 0.002 | [11] -0.026 | rosiglitazone 0.004 | [12] -0.037 | [13] -0.056

NAA16 (UniProt Q6N069)
inactive: [1] 0.007 | [2] -0.029 | [3] -0.007 | [4] -0.02 | Nexturastat A -0.004 | vemurafenib 0.008 | [5] -0.042 | [6] 0.069 | givinostat 0.017 | barasertib -0.021 | [7] 0.056 | volasertib -0.09 | [8] 0.11 | epoxomicin -0.011 | [9] -0.007 | [10] -0.059 | [11] -0.033 | rosiglitazone -0.022 | [12] 0 | [13] 0.123

Reference: the supplement of paper PMC10849652
